## Results of single-concentration screens

Sequences of proteins named here, by UniProt entry; tags and fusion partners are left off.
UniProt P9WFT3, whole entry: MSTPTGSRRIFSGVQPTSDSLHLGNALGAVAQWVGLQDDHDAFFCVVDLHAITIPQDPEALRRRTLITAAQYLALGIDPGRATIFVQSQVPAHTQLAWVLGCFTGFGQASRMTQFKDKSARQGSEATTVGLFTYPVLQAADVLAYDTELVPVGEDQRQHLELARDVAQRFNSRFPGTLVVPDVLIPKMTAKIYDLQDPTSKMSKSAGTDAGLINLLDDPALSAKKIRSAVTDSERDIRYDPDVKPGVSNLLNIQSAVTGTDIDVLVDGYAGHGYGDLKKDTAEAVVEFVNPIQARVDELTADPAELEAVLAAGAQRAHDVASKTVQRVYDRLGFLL
UniProt P9WNZ1, whole entry: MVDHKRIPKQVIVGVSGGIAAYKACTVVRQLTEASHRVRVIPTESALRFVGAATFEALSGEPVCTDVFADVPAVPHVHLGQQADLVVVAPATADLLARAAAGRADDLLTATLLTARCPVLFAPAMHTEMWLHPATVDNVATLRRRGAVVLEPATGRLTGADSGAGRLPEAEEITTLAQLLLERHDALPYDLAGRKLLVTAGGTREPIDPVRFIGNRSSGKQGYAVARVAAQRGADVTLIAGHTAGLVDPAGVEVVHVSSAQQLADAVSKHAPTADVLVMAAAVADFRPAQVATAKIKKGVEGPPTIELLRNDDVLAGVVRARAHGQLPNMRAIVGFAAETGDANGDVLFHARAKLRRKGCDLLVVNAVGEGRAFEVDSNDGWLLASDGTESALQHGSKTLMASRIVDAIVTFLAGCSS

MtTrpRS: 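Tryptophan-tRNA ligase, Mycobacterium tuberculosis (UniProt P9WFT3). Enzyme assay of tryptophanyl-tRNA synthetase; the read-out is not stated. Tested at 10 µM. Direction is not recorded; retested compounds ran higher, which suggests that high means inhibition. Of about 65,000 compounds tested this way, about 64 (0.098%) reached 50% or more in at least one test.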
CoaBC: 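Enzyme assay of CoaBC with a phosphate dye (Biomol Green) read at 650 nm. Target: Coenzyme A biosynthesis protein CoaBC, Mycobacterium tuberculosis (UniProt P9WNZ1). Tested at 30 µM. Direction is inferred from only a few compounds that gave an IC50; most scored high, so higher reads as stronger inhibition. Most strong results did not repeat in a second test. Of about 67,000 compounds tested this way, about 40 (0.06%) reached 50% or more in at least one test.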

The filed quantity is “Percent Effect” (%).
The record does not define 0% and 100%; most values in the screen are far below 50% and negative numbers occur (in some assays of this library far below -100).
Compounds were drawn at random from those tested, without regard to their results.

| structure | MtTrpRS | CoaBC |
|---|---|---|
| `COCC1CN(C(=O)Nc2cc(Br)ccc2F)CCO1` (stereo not drawn) | -1.763 | -9.234 |
| `CC(C)CC(=O)NCCCc1cc(N)n(-c2ccccc2)n1` | -6.555 | 0.128 |
| `Cc1ccc(C(=O)NC2CCN(Cc3noc(C(C)(C)C)n3)CC2)s1` | 2.13 | -0.7614 |
| `CN(C)c1ncc2c(O)nc(C3CCCNC3)cc2n1` (stereo not drawn) | -1.903 | -3.155 |
| `Cc1nc(-c2ccccc2)n(CC(=O)NC2CCCC2)n1` | 1.655 | 4.258 |
| `Cc1ncc(C(=O)N2CC[C@@]3(O)CCN(C(=O)N(C)C)C[C@H]3C2)cn1` | -2.982 | -1.737 |
| `COCCCC1(C(=O)O)CCCN(Cc2ccccc2C)C1` (stereo not drawn) | 0.819 | -1.373 |
| `Cc1ccc(NC2CCN(C(=O)c3cccnc3O)CC2)nn1` | 18.3 | 7.273 |
| `CN(Cc1nnc(C2CC2)o1)Cc1ccccc1N1CCOCC1` | 0.4078 | 9.396 |
| `O=C(CCNc1ccc(Br)cn1)NCc1ccncc1` | -6.242 | 1.86 |
| `CC(NC(=O)Nc1ccncc1)c1ccc2c(c1)CC(=O)N2` (stereo not drawn) | 1.687 | 1.518 |
| `CC(C)C[C@H]1CN(c2nc3c(cc2C(N)=O)CCC3)CC[C@@]1(C)O` | 1.876 | -5.369 |
| `CC(=O)c1cn(CCC(=O)N[C@@H](CC(C)C)C(=O)O)c2ccccc12` | 1.244 | 4.237 |
| `CCC(CC)c1cc(CNC(=O)N2CCC(n3cncn3)CC2)on1` | 1.847 | 12.02 |
| `COc1ccccc1S(=O)(=O)N1CC(N(C)C)Cc2ccccc21` (stereo not drawn) | -0.2349 | -0.7335 |
| `COC(=O)c1cccn1C1CCN(Cc2cccnc2)CC1` | -3.123 | -11.26 |
| `Cn1cc(CN2C[C@@H]3OCCN(c4ncccn4)[C@@H]3C2)cn1` | -10.95 | 2.284 |
| `CNC(=O)c1cn[nH]c1C1CCCN1c1nc(C)cc(C)n1` (stereo not drawn) | -0.4342 | -14.36 |
| `CC1CN(c2ncnc3sccc23)CCN1c1nccs1` (stereo not drawn) | -1.363 | 2.589 |
| `Cc1ncccc1OCC(=O)N1CCN[C@H]2CS(=O)(=O)C[C@H]21` | 0.6706 | 1.322 |
| `CC(C)n1ccnc1CNC(=O)c1cccc(CCC(C)(C)O)c1` | -0.07262 | 0.9732 |
| `COc1cccc(CN2CCCCC2CN2CCOCC2)c1F` (stereo not drawn) | -4.095 | 5.221 |
| `Cn1ccc(CNC(=O)N2CCCC3(C2)OCCO3)c1` | -3.786 | 9.569 |
| `O=C(NCCCNC(=O)c1ccccc1)Nc1ccc(F)cc1F` | 5.723 | 1.805 |
| `Cn1cc(S(=O)(=O)N2CCCC2CC(=O)c2cccs2)cn1` (stereo not drawn) | -4.102 | 1.919 |
| `CC(C)c1nc2c(n1C)CCN(CC(=O)Nc1nncs1)C2` | -1.038 | -3.182 |

The last 3 entries again:

structure	MtTrpRS	CoaBC
O=C(NCCCNC(=O)c1ccccc1)Nc1ccc(F)cc1F	5.723	1.805
Cn1cc(S(=O)(=O)N2CCCC2CC(=O)c2cccs2)cn1 (stereo not drawn)	-4.102	1.919
CC(C)c1nc2c(n1C)CCN(CC(=O)Nc1nncs1)C2	-1.038	-3.182

Source: ChEMBL document CHEMBL3988442, “University of Dundee, Small-Polar-MMV Screening Library” (2021).